We go through 1 substance from doi:10.1101/2025.05.08.652646.

No constants are given. Whether binding was seen depends on the method and setting. Binding can be weak; no strength is given.

The target in this assay is N-terminal domain of LypB (Caulobacter crescentus). Kind of assay: two-hybrid.

Turning to “LypA CARD-like domain (aa 1-84) (from UniProt A0A0H3IFL3) (domain or fragment)”, the binding entry is on record as “binds”.
